Data published in patent EP0821003B1, “PEPTIDES AND REMEDY FOR AUTOIMMUNE DISEASES COMPRISING THE SAME” (Aventis Pharma Ltd., priority 1995, dated 2003).
Not every detail of the peptide structures is certain; ends, links or a residue may be inferred. Residues, ends and D or L forms follow the SMILES beside them. *: point of attachment. Boc = CC(C)(C)OC(=O)*

System: anti-KLH antibody production
Test: Suppressive effect on anti-KLH antibody production in mice (ELISA of serum IgG)
Type: in vivo, Balb/c mice
Conditions: Example 3; 100 µg subcutaneously day 5 and day 3 prior to KLH; blood day 21 after antigen; 8 mice per group
Method: Day 5 and day 3 prior to the antigen administration, 100 µg of each Peptide (I) to (VI) of the present invention composed of 9 amino acid residues indicated by Sequence ID No. 1 in the Sequence Listing were dissolved in 200 µl of physiological saline. The resulting solution was subcutaneously administered to 9-week-old Balb/c mice. As a control, a non-administered group to which the same amount of physiological saline was administered was employed. In 200 µl of physiological saline, 25 µg of KLH were dissolved as an antigen and the resulting solution was subcutaneously administered. The blood was collected on day 21 after antigen administration and an antibody titer was measured by the method which is described below.
KLH was diluted to 10 µg/ml with a phosphate buffered physiological saline (PBS). Fifty µl portions of the resulting solution were poured into a 96-well microplate and the plate was allowed to stand at 4iC overnight. […]
The resulting microplate was washed three times with T-PBS, to which 50 µl portions of an anti-mouse IgG-peroxidase-labeled antibody (TAGO Co.) diluted to 1/4000 with casein TBS were poured. […] After the completion of the reaction, 0.5N diluted sulfuric acid was added to terminate the reaction and an absorbance at 450 nm was measured by a colorimeter ("BEP-II", product of Behringwerke AG/Germany) with the absorbance at 650 nm as a control. […]

CC(C)C[C@H](NC(=O)[C@H](CCCCN)NC(=O)[C@H](C)NC(=O)OC(C)(C)C)C(=O)N[C@H](C(=O)N[C@@H](Cc1ccccc1)C(=O)NCC(=O)N[C@@H](CCCCN)C(=O)NCC(=O)N[C@H](C(=O)O)[C@@H](C)O)[C@@H](C)O [Peptide (IV)] (Boc-AKLTFGKGT-OH)
Anti-KLH IgG antibody titer (unit ± SD): 48.5 ± 24.9 unit
